One may read the Inhibition as the change of the read-out against control, counted positive when it falls.

The list shows a part of the results. Measured potencies and affinities stand elsewhere.

For the assay, the system named is Pseudomonas aeruginosa. To be noted: Concentration 20 uM; ASSAY_TEST Inhibition of Bacterial Growth; detection method Absorption (OD600); MEDIA CAMHB; plate type 384well; NBS; CORNING #3640; time 18 hr.
Take `CC(C)c1ncc(CO)n1Cc1c(Cl)cccc1Cl`: the Inhibition turned out to be 7.86%.
In the case of `COCC(=O)Oc1cc(-c2ccc(C)cc2C)c(OC(=O)COC)c(-c2ccc(C)cc2C)c1` it was 14.74%; in that of `O=C(O)CSc1ccc(NC(=O)Nc2ccccc2F)cc1`, 24.08%.
In the case of `Cc1cc(=O)n2nc(-c3ccc(C(C)(C)C)cc3)cc2[nH]1`, the Inhibition turned out to be 14.85%.
In the case of `O=C(Nc1ccc(Oc2ccc(NC(=O)Nc3ccccc3Cl)cc2)cc1)Nc1ccccc1Cl`, the Inhibition was determined as 23.74%.
In the case of `COc1cc([N+](=O)[O-])ccc1NC(=O)Oc1ccc(NC(C)=O)cc1` it was 10.1%.
Regarding `Clc1[nH]cnc2nccc1-2`, the Inhibition was found to be 9.19%.
With `Oc1ccc(/N=N/c2ccccc2)c(O)c1/N=N/c1ccccc1`, the Inhibition is on record as -15.52%.
In the case of `O=C(/C=C\c1ccc2ccccc2n1)c1cc(Cl)ccc1O` it was -12.14%; in that of `Nc1ccc(C(=O)c2cccs2)cn1`, 7.89%.
Under `Cc1n[nH]c2nc(N)nn2c1=O` stands 21.41%; under `COc1cc2c(cc1OC)C(C1(O)CCCCC1)NCC2` (stereo not given), 12.15%; under `Cc1nn(-c2ccccc2)c2c1C(c1ccc([N+](=O)[O-])cc1)C(C#N)=C(N)O2` (stereo not given), 20.65%.
In the case of `O=S(=O)(Oc1ccc(Cl)cc1)c1cccc2cccnc12` it was 22.42%.
Regarding `O=C(CN1CCCC1)Nc1nc(-c2ccc(Cl)cc2)cs1`, the Inhibition is listed as -12.45%.
In the case of `Cc1cc(NC(=O)Nc2cc(F)ccc2F)no1` it was 9.73%; in that of `COC(=O)c1ccccc1NCCO`, 21.15%.
In the case of `Cc1ccc(S(=O)(=O)Oc2cc(N)c3c(n2)CCC3)cc1` it was 19.57%; in that of `O=C(c1ccccc1)c1ccc[nH]1`, -20.58%; in that of `Nc1ccc(C(=O)Nc2ccc(NC(=O)c3ccco3)c(O)c2)cc1`, 22.22%.
In the case of `Cc1ccc(-c2cssc2=S)cc1` it was -31.4%.
In the case of `CN(c1cccnc1)c1[nH]cnc2nncc1-2`, the Inhibition is -5.61%.
Under `CSC1=NC=C(C#N)C2=NC(c3ccc(Cl)cc3)NN12` (stereo not given) stands 19.69%; under `Cn1ncc2c(Nc3ccc(O)cc3)nc(Cl)nc21`, 4.53%; under `O=C(NC(=S)Nc1ccccn1)c1ccccc1`, 11.42%.
Regarding `O=c1cc(-c2ccc(O)cc2)oc2c(O)c(O)c(O)c(O)c12`, the Inhibition was 15.74%.
In the case of `COc1ccc2c3c([nH]c2c1)[C@H]1C[C@H]2[C@H](C[C@@H](O)[C@H](OC)[C@H]2CO)CN1CC3` it was 13.68%; in that of `O=[N+]([O-])c1nc[nH]c1/C=C\c1ccccc1`, 9.45%; in that of `Cc1nc(N)nc(O)c1CCCNc1ccc(CCC2(CCl)OCCO2)cc1`, 22.01%.
In the case of `COc1ccc(C2OC3=Nc4cc(C)c(C)cc4NC3=C2O)cc1` (stereo not given) it was 17.42%.
In the case of `C1CCCC(NC2=NCCO2)CCC1` it was -24.38%; in that of `OC(C#Cc1ccccc1)(c1ccccc1)c1ccccc1`, 5.55%.
For the compound `O=[N+]([O-])c1cccc(/C=C/c2ccccn2)c1`, the Inhibition was found to be 19.15%.
Under `CCC(CC)NCCOC(=O)c1ccc([N+](=O)[O-])cc1` stands 11.76%; under `O=C(N(c1ccccc1)c1ccccc1)N(c1ccccc1)c1ccccc1`, 30.32%; under `Oc1ccc2ccccc2c1/N=N/c1ccc(F)cc1`, 0.71%.
Under `CN1C(=O)CC2(C)C1=CCc1scnc12` (stereo not given) stands -0.94%.
In the case of `CC12C(=O)N(c3nccs3)C(=O)C1(C)C1CCC2O1` (stereo not given) it was 3.99%.
`CCOC(=O)c1c(N)ssc1=S`: the Inhibition amounted to 0.4%.
Turning to `Cc1cc(OCCCCOc2ccc(C#N)cc2)ccc1[N+](=O)[O-]`, the Inhibition is given as 18.43%.
As to `O=C1NC(=O)N2CCSC2(Cc2ccccc2)N1` (stereo not given), the Inhibition is listed as 0.32%.
Under `Cc1ccc(/N=N/c2ccc(C)cc2NC(=O)Nc2ccccc2F)cc1` stands 20.01%.
For `O=[N+]([O-])c1ccc2[nH]c3nc4ccccc4nc3c2c1`, the Inhibition is listed as -7.68%.
In the case of `CC(C)n1cc(C#N)c(N)n1` it was 21.51%; in that of `Cc1ccc(Cl)cc1NC(=O)c1cc2ccccc2cc1O`, 18.12%; in that of `C=CCOCCN(CC)CC`, -10.94%.
Under `COc1ccccc1C1OC2=Nc3cc([N+](=O)[O-])ccc3NC2=C1O` (stereo not given) stands 10.41%; under `CCCSc1ncnc2[nH]ncc12`, 12.64%.
In the case of `NC(=S)NC(=O)c1ccccc1` it was 19.62%; in that of `C=CCC(CC)C(=O)NC(=O)N1CCCc2ccccc21` (stereo not given), -1.54%; in that of `Nc1o[nH]c(=O)c1C1CCCCC1`, 24.88%.
Consider `Cn1c(=O)c2nc(SCc3ccccn3)[nH]c2n(C)c1=S`, for which the Inhibition turned out to be 18.43%.
As for `c1ccc(/N=N/N2CCOCC2)cc1`, the Inhibition is 0.98%.
Under `COc1cc(CC(=O)C(=O)O)oc(=O)c1` stands 1.6%; under `C=CCNC(S)=Nc1c(N)n(C)c(=O)n(C)c1=O`, -17.65%.
In the case of `CCS(=O)(=O)C1C(=O)N(C)C(S(=O)(=O)CC)C(=O)N1C` (stereo not given) it was 15.36%; in that of `OCc1nc2nc(Cl)c(Cl)[nH]c-2n1`, -6.12%; in that of `CC(=O)N1C(=O)C2(NCC(C)N2)c2ccccc21` (stereo not given), 10.87%.
As for `CC1=CC(=O)Nc2cncnc2N1`, the Inhibition came out at 16.17%.
With `COc1ccn(C2CCCCO2)c(=O)n1` (stereo not given), the Inhibition turned out to be 2.49%.
For the compound `c1ccc(-c2nc[nH]c2-c2ccccc2)cc1`, the Inhibition is 12.66%.
Turning to `CC12CCC(C1)C(C)(C)C2OC(=O)c1ccccc1C(=O)O` (stereo not given), the Inhibition was 13.04%.
Under `Oc1nc2ccccc2n1C1=CCNCC1` stands 2.93%; under `Cc1ccc(/N=N/c2c(O)c3ccccc3[nH]c2=O)c(S(=O)(=O)N(C)C)c1`, 26.99%.
Under `O=c1[nH]c(=O)n2ncnc2[nH]1` stands 10.65%.
Under `O=CN/C=C\c1cc(O)ccc1O` stands -23.16%; under `CSc1nc(C)cc(S)n1`, 2.94%.
As to `N#CCS(=O)(=O)c1cccc[n+]1[O-]`, the Inhibition is on record as 0.13%.
Under `CC1(C)c2ccccc2-c2nc3ccccc3cc2C1O` (stereo not given) stands -4.4%.
Under `O=C(c1ccccc1)c1ccc(-c2ccc(O)cc2)cc1` stands 17.15%; under `CC(=O)c1cc2c(cc1C)CCCC2(C)C`, 17.61%.
In the case of `C=CCOC(=O)/C=C\C(=O)NC(N)=O` it was 6.38%; in that of `Nc1ccccc1C(=O)Nc1ccc(Cl)cc1Cl`, 25.31%; in that of `N#Cc1cc(-c2ccccc2)[nH]c1-c1nccc2ccccc12`, 3.93%.
For the compound `O=C(O)CCc1cccnc1`, the Inhibition is on record as 24.36%.
In the case of `Clc1ccccc1-c1nc(-c2ccncc2)no1` [PIFEXOLE] it was 9.89%; in that of `O=C(O)c1nn(-c2ccccc2-c2nnc(O)nc2O)c(=O)[nH]c1=O`, 13.93%.
In the case of `CSc1nc(S)c2[nH]c(S)nc2n1` it was 6.05%; in that of `COc1ccc([N+](=O)[O-])cc1NC(=O)N(C)Cc1ccco1`, 19.99%.
With `Cc1ccc(-n2nnnc2-c2cccnc2)cc1`, the Inhibition came out at 12.5%.
Under `O=S1(=O)CCN(Cc2ccccn2)CC1` stands 5.43%; under `CCCCCC(=O)C(=O)c1ccc(O)cc1O`, 2.6%; under `O=C(CN1CCOCC1)N1CCOCC1`, 11.38%.
In the case of `c1ccc(NN(Cc2ccncc2)c2ccccc2)cc1` it was 12.56%; in that of `N=C(N)n1c(N)nc2ccccc2c1=O`, 8.45%.
Under `NC(=S)N/N=C/c1cc(-c2cccc(N)c2)ccn1` stands 3.8%.
As for `Cc1nc2ccnn2c(O)c1CCc1ccccc1`, the Inhibition turned out to be 11.23%.
Under `C#CCCOC(=O)Nc1ccccc1` stands 17.08%; under `CCCCc1c(C)nc(S)nc1O`, 10.84%; under `Br.CN(C)c1n/c(=N/Cc2ccco2)ss1`, 22.68%.
Under `CSc1cccc(NC(=O)N2CCN(C)CC2)c1` stands 6.78%; under `Cn1c(SCc2ccccn2)nc2c1c(=O)[nH]c(=O)n2C`, 16.97%; under `O=C(Nc1ccc(Cl)cc1)Nc1cccc2nsnc12`, -9.37%.
Turning to `COc1ccc2c(=O)cc(-c3cccnc3)oc2c1OC`, the Inhibition was 7.45%.
In the case of `CCCCSc1cc(C)nc(N)n1` it was 27.44%.
In the case of `Cc1cccnc1N=C(S)Nc1ncccc1C` it was 9.37%; in that of `N#Cc1ncc(Cl)c2ccccc12`, -12.33%; in that of `NC1=C2C(=O)c3ccccc3C(=O)C2=C(N)CC1`, -14.52%.
With `O=c1ccn2c(n1)SC(c1ccccc1)C2` (stereo not given), the Inhibition was -3.69%.
In the case of `Nc1ccccc1SC1CC(=O)N(c2ccccc2Cl)C1=O` (stereo not given) it was -10.93%.
In the case of `Nc1ccccc1SC1CC(=O)N(c2ccc(Cl)c(Cl)c2)C1=O` (stereo not given) it was 12.53%.
Under `Nc1cc(-c2ccccc2)ccc1O` stands 12.04%; under `N#CC1=C2CCCCC2(O)NC1=O` (stereo not given), 6.64%; under `O=C1C(CO)C(CO)C(CO)C1CO` (stereo not given), 17.32%.
Regarding `CC1(C)N=C(N)N=C(N)N1c1ccc(OCCCOc2ccccc2)c(Cl)c1.CCS(=O)(=O)O`, the Inhibition was 17.09%.
In the case of `C(=N\N=c1/nnn(Cc2ccccc2)[nH]1)/c1ccccc1` it was 12.3%; in that of `CC(=O)Nc1c(C)cc(OCC(=O)O)cc1C`, 17.35%.
Under `Cc1c(COC(=O)NC(C)C)c(COC(=O)NC(C)C)c2n1CS(=O)(=O)C2` stands 15.85%.
For the compound `COc1ccc(NC(=O)CC(C)=O)c(OC)c1`, the Inhibition was found to be 16.88%.
As to `c1cc(-n2nnc3cnccc32)ccn1`, the Inhibition turned out to be 17.77%.
In the case of `O=C(NC(=S)Nc1cccc(O)c1)c1ccco1` it was 8.77%.
Under `O=[N+]([O-])/C=C/c1cc2ccccc2[nH]1` stands 2.83%; under `Oc1cc(-n2cccn2)c(O)cc1-n1cccn1`, -0.58%.
Regarding `CC(C)(C)CC(C)(C)n1nnnc1N`, the Inhibition is recorded as 22.33%.
Under `O=C(/C=C/c1ccccc1Cl)c1ccc(O)cc1` stands -5.86%; under `Cn1nc(N)c2ncc(C(Cl)(Cl)Cl)nc21`, 12.02%; under `OCC1CCCC(n2cnc3c(S)ncnc32)O1` (stereo not given), 6.5%.
Under `Cn1c(=O)c2c(nc(N3CCCCC3)n2C)n(C)c1=O` stands 5.07%; under `O=C(Cn1nnc(N2CCCCC2)n1)N/N=C/c1ccccc1O`, 27.98%.
Under `CCOC(=O)/C(C#N)=C/c1cccc(C)c1` stands 6.01%.

The values are drawn from ChEMBL document CHEMBL4296182, “CO-ADD screening of NIH NCI Diversity Set V”.
